For assay [1], the target named is purified recombinant human prostasin (human) (UniProt Q16651). Briefly: incubation with recombinant prostasin 37 degrees C 60 min, immunoblot (FIG. 8).
The target is the same in assay [2]. Briefly: complex formation at different pH, western blot (FIG. 6A); complex increased with higher pH. (In western blotting, separated proteins are transferred to a membrane and probed.)
Assay [3] shares this target. The assay can be described thus: prostasin-binding assay, 37 degrees C, SDS-PAGE, western blot with mPBP antibody and prostasin antibody.
The target is the same in assay [4]. The assay can be described thus: prostasin-binding assay, SDS-PAGE, western blot (FIG. 4A).
The target is the same in assay [5]. Briefly: prostasin-binding assay, western blot (FIG. 4C legend).

Chains of the proteins cited; added tags and fusions are not shown. Residues count along the entry.
UniProt Q16651, residues 33-322: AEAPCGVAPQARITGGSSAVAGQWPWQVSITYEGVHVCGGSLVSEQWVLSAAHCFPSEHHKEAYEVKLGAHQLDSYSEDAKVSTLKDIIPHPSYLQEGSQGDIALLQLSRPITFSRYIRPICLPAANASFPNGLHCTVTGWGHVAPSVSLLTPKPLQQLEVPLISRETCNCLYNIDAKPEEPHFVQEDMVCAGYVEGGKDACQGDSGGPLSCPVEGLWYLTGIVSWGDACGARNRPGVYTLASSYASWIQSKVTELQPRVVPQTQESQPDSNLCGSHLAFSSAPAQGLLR

No constants are given. Whether binding was seen depends on the method and setting. Some binding calls cover weakened binding; strength is not graded here. For part of these data: Tags and fused reporters may be left off the sequences shown.

B1: GST-hPN-1 (glutathione-S-transferase fused to the N-terminus of mature human protease nexin-1) (protein, UniProt P07093 20-398, looked up, not shown: a dimerising Fc or GST)
chain: SHFNPLSLEELGSNTGIQVFNQIVKSRPHDNIVISPHGIASVLGMLQLGADGRTKKQLAMVMRYGVNGVGKILKKINKAIVSKKNKDIVTVANAVFVKNASEIEVPFVTRNKDVFQCEVRNVNFEDPASACDSINAWVKNETRDMIDNLLSPDLIDGVLTRLVLVNAVYFKGLWKSRFQPENTKKRTFVAADGKSYQVPMLAQLSVFRCGSTSAPNDLWYNFIELPYHGESISMLIALPTESSTPLSAIIPHISTKTIDSWMSIMVPKRVQVILPKFTAVAQTDLKEPLKVLGITDMFDSSKANFAKITTGSENLHVSHILQKAKIEVSEDGTKASAATTAILIARSSPPWFIVDRPFLFFIRHNPTGAVLFMGQINKP
Consider B1, for which the binding entry in assay [1] is “binds”.

B2: mouse prostasin-binding protein (mPBP) purified from mouse seminal vesicle fluid (protein, UniProt Q07235 20-397, looked up)
chain: SQFNSLSLEELGSNTGIQVFNQIIKSRPHENVVVSPHGIASILGMLQLGADGKTKKQLSTVMRYNVNGVGKVLKKINKAIVSKKNKDIVTVANAVFLRNGFKMEVPFAVRNKDVFQCEVQNVNFQDPASASESINFWVKNETRGMIDNLLSPNLIDGALTRLVLVNAVYFKGLWKSRFQPESTKKRTFVAGDGKSYQVPMLAQLSVFRSGSTRTPNGLWYNFIELPYHGESISMLIALPTESSTPLSAIIPHITTKTIDSWMNTMVPKRMQLVLPKFTAVAQTDLKEPLKALGITEMFEPSKANFTKITRSESLHVSHILQKAKIEVSEDGTKASAATTAILIARSSPPWFIVDRPFLFSIRHNPTGAILFLGQVNKP
As for B2, the binding result in assay [2], in assay [3], in assay [4] and in assay [5] was “binds” in each case.

B3: GST-mPN-1 (glutathione-S-transferase fused to the N-terminus of mature mouse protease nexin-1) (protein, UniProt Q07235 20-397, looked up, not shown: a dimerising Fc or GST)
chain: SQFNSLSLEELGSNTGIQVFNQIIKSRPHENVVVSPHGIASILGMLQLGADGKTKKQLSTVMRYNVNGVGKVLKKINKAIVSKKNKDIVTVANAVFLRNGFKMEVPFAVRNKDVFQCEVQNVNFQDPASASESINFWVKNETRGMIDNLLSPNLIDGALTRLVLVNAVYFKGLWKSRFQPESTKKRTFVAGDGKSYQVPMLAQLSVFRSGSTRTPNGLWYNFIELPYHGESISMLIALPTESSTPLSAIIPHITTKTIDSWMNTMVPKRMQLVLPKFTAVAQTDLKEPLKALGITEMFEPSKANFTKITRSESLHVSHILQKAKIEVSEDGTKASAATTAILIARSSPPWFIVDRPFLFSIRHNPTGAILFLGQVNKP
B3: the binding result in assay [1] is “binds”.
